As a reminder, the pKd is the negative decadic logarithm of the Kd, by convention in mol/L.

Consider two sequences from doi:10.1101/2020.08.15.252130.

pKd: −log10 of the molar value. For part of these data: Negatives hold for the conditions tested. For part of these data: Protein sequences can lack the tags named with them. For part of these data: The comparison behind a weaker result is the experiment's own reference, which may not be listed here. For part of these data: Construct, isoform or probe ends are uncertain for at least one entry.

The target in data set [1] is T1, LS2 linker-RRM2 (Drosophila melanogaster) (UniProt Q9W1T4).
T1 sequence (looked up): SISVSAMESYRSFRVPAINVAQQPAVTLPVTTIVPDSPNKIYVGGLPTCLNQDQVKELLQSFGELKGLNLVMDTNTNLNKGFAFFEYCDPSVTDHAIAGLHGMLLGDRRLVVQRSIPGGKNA
Description: ITC. The settings on record: 7 C, 1:1 molar ratio; residues 204-325.

The target in data set [2] is LS2 RRM1,2 F285D,F287D (RRM2_RNP1) (Drosophila melanogaster) (UniProt Q9W1T4). Description: NMR. To be noted: RRM2 contribution lost, RRM1 and linker kept; residues 110-325.
The target of data set [3] is LS2 RRM1,2 GS_linker H197-P233,replaced,by,GGS-rich,linker,of,identical,length (Drosophila melanogaster) (UniProt Q9W1T4). Nature of the data set: NMR. To be noted: linker contribution lost, both RRMs still bind; residues 110-325.
Data set [4] addresses LS2 RRM1,2 K192E,R194E (RRM1_beta5) (Drosophila melanogaster) (UniProt Q9W1T4). Description: NMR. The settings on record: RRM1 contribution lost, RRM2 and linker kept; residues 110-325.
The target in data set [5] is T1, LS2 linker-RRM2 (Drosophila melanogaster). Description: NMR. The settings on record: TMPyP4 (disrupts G4), overnight; residues 204-325.
In data set [6] the target is LS2 RRM2 (Drosophila melanogaster) (UniProt Q9W1T4). Nature of the data set: NMR. The settings on record: minor CSP; residues 242-319.

Turning to GGGGAGGAGGGGGGCGUAUGA [21-mer G4 RNA], in data set [1], the pKd was 4.80. Further, the binding result in data set [2] is “binds more weakly”; in data set [3] it was “binds more weakly”; in data set [4], “binds more weakly”; in data set [5], “no binding”.
Take GGUGGUGG [8-mer]: in data set [6], the binding result was “binds more weakly”.
